Measured values published in the supplement of paper PMC10849652.
The list shows a part of the results. Residues, ends and D or L forms follow the SMILES beside them. *: point of attachment. Cbz = O=C(OCc1ccccc1)*

Amino acid sequences for entries named in this document (tags omitted). A change or cut given only in a name is not applied to a line headed by its entry.
UniProt A5D8V6: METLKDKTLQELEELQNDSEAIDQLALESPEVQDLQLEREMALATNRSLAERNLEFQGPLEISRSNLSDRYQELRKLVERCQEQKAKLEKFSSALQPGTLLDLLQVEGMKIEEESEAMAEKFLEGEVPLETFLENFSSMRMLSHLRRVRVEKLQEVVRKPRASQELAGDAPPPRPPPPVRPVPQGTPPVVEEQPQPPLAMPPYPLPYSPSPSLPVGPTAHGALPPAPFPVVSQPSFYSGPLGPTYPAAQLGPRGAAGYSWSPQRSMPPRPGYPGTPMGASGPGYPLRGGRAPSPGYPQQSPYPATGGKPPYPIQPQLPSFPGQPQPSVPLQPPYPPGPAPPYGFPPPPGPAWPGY
UniProt Q9H9C1: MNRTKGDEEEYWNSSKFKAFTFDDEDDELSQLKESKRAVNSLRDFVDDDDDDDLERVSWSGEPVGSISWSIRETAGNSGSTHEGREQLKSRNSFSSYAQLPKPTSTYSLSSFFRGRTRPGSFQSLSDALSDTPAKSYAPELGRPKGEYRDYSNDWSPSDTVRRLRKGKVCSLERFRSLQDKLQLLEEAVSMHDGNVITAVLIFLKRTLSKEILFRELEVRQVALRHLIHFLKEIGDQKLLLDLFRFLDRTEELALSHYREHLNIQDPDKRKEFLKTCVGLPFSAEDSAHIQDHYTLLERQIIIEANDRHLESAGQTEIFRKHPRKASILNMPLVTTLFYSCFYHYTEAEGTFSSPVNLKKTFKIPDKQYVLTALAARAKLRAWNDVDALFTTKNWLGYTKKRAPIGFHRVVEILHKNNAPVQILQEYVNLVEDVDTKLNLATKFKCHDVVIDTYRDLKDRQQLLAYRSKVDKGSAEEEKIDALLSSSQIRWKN
UniProt Q14119: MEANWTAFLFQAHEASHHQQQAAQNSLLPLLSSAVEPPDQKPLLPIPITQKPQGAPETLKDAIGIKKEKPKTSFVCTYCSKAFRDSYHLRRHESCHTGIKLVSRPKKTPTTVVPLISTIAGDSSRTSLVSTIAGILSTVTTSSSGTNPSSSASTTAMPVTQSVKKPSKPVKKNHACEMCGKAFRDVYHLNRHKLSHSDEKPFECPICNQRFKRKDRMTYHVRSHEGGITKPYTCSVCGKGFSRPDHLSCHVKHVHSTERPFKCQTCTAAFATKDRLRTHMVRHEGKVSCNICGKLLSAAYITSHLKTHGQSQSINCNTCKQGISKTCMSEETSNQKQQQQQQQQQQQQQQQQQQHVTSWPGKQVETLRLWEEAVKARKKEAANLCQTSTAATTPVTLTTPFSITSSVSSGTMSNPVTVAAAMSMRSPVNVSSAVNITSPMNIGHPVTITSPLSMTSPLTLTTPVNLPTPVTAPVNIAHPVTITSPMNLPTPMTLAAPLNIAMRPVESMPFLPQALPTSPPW
UniProt Q9Y277: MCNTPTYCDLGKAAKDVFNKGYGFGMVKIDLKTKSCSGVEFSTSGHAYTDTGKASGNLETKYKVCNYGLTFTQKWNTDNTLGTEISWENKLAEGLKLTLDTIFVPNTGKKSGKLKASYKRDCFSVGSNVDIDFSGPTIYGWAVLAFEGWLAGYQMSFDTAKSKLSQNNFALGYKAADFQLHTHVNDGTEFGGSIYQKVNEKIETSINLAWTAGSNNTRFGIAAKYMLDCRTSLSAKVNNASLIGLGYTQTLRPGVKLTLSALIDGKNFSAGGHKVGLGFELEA
UniProt Q9UEU0: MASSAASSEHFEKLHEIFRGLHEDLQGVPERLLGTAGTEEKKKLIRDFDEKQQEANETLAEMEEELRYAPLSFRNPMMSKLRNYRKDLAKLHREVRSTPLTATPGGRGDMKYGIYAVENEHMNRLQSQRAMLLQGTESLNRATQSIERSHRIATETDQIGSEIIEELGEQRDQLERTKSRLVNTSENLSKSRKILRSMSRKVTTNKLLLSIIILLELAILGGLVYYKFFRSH
UniProt Q9P1Q0: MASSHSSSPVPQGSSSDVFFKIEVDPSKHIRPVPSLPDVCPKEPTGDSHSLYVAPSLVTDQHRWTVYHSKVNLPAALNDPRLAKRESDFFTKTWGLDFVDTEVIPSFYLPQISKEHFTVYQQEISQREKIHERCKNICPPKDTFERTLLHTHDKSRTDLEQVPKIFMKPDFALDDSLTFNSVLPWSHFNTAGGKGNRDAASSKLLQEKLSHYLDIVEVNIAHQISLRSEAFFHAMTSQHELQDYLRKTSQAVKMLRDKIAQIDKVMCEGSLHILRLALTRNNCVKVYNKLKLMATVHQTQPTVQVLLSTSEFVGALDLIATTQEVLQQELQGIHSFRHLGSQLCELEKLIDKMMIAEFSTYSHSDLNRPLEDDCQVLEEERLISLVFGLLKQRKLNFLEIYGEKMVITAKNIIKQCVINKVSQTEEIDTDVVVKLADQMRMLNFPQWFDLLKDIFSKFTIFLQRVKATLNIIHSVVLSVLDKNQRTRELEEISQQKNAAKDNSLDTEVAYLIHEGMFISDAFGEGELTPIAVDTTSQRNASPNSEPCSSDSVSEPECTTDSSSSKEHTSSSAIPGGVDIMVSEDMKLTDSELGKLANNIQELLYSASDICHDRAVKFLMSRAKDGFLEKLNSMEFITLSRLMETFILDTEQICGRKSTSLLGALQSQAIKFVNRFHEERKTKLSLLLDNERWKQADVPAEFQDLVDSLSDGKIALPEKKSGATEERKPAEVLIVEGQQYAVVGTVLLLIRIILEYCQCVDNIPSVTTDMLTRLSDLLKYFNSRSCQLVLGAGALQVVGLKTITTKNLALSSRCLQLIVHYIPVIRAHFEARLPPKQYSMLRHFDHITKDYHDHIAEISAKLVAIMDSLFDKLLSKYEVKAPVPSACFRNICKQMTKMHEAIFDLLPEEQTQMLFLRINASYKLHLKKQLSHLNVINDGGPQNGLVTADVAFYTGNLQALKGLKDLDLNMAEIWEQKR
UniProt Q15906, whole entry, looked up: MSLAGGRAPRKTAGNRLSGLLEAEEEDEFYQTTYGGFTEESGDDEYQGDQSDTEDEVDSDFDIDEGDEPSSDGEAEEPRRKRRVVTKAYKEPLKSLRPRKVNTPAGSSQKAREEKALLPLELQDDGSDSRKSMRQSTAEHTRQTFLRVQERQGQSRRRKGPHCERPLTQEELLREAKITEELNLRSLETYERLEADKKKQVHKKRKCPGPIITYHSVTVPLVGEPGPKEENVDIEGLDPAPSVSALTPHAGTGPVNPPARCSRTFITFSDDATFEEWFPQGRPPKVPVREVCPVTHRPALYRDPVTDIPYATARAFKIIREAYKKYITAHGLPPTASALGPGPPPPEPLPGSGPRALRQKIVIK
UniProt P98170, whole entry, looked up: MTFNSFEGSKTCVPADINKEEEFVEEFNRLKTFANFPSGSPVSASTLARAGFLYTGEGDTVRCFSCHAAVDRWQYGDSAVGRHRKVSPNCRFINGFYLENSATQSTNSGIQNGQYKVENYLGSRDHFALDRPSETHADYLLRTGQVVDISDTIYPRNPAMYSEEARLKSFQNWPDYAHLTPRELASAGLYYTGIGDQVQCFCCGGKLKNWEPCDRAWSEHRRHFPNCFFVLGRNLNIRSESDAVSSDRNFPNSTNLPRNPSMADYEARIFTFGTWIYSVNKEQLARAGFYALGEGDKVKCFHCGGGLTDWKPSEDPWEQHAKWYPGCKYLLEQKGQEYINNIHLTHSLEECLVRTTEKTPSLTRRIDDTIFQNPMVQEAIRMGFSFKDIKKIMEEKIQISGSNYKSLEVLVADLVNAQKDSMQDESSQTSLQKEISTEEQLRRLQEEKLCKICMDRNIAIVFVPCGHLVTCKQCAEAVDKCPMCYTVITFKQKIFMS
UniProt Q9C0J8: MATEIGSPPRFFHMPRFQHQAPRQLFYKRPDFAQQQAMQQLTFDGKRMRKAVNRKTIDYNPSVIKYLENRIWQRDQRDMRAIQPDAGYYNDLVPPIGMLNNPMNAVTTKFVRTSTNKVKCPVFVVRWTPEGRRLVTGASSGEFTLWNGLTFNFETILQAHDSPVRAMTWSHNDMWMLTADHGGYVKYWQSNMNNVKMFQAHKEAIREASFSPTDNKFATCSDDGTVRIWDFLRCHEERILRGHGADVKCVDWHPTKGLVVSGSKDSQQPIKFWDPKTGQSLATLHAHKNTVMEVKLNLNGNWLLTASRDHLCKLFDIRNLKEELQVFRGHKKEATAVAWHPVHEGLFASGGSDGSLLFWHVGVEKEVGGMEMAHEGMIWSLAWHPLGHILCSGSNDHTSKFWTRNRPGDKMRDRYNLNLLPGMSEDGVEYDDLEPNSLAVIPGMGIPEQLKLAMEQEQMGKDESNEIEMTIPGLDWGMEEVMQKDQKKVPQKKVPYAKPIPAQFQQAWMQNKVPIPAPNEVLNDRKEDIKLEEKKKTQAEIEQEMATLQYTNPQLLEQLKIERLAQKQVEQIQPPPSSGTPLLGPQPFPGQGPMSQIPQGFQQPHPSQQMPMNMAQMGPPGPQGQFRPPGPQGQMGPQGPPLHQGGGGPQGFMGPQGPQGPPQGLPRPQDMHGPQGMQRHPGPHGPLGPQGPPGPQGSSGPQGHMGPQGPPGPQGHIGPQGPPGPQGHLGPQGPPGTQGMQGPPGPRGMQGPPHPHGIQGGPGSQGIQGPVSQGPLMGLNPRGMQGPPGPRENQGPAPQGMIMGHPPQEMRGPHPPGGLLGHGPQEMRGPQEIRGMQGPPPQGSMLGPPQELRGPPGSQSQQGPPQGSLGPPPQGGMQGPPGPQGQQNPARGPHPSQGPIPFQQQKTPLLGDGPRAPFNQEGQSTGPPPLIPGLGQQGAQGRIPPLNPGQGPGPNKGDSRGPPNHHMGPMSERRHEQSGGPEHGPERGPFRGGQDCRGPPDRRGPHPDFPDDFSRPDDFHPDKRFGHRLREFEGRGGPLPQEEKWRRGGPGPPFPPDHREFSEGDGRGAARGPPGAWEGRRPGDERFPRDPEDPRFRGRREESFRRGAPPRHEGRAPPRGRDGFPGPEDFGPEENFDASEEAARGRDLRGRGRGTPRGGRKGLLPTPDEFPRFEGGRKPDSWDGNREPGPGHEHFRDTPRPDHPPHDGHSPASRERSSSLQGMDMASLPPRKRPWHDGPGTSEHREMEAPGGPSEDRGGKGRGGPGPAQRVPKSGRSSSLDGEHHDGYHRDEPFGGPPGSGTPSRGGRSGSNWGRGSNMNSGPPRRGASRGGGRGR
UniProt Q96S15: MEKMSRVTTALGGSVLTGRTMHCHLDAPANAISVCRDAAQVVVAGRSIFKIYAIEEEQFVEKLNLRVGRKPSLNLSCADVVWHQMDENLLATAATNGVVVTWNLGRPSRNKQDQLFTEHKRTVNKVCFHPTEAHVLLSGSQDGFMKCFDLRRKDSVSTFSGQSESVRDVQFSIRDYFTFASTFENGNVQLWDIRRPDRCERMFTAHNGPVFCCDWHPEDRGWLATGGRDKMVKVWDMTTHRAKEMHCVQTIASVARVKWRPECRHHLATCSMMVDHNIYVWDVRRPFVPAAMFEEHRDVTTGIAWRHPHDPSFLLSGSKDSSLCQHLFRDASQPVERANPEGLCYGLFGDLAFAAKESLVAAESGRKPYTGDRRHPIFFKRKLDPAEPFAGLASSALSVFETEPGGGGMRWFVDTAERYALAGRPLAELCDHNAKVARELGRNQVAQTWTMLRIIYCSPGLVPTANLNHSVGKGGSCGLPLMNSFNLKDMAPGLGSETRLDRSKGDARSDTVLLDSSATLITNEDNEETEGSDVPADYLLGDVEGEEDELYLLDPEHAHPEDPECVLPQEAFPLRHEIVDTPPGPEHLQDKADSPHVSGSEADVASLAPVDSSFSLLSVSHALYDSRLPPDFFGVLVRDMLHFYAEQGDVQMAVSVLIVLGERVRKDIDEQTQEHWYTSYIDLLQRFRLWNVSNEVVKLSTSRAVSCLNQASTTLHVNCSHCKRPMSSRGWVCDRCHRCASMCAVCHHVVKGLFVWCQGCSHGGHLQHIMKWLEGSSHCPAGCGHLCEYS
UniProt Q9Y6I7: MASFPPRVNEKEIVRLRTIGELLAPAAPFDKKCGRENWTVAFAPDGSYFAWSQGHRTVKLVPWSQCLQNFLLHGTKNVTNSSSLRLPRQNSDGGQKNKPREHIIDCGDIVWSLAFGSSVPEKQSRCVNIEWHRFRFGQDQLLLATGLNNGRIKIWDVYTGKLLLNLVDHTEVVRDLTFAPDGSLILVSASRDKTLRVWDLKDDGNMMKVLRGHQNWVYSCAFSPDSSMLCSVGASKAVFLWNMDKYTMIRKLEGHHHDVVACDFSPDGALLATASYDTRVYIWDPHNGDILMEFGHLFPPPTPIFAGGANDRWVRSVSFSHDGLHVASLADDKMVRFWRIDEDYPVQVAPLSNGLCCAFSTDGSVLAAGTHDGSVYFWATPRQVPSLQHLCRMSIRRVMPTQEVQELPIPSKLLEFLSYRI

How the values were obtained:
Assay in all cases: log2 fold change, soluble protein after heating vs DMSO (PISA); higher = thermal stabilisation; K562 cells, 10 uM, 30 min; active = over 0.2 and 3.5 SD of the protein, either way, in both replicates (recomputed)
erlotinib = compound: C#Cc1cccc(Nc2ncnc3cc(OCCOC)c(OCCOC)cc23)c1 [erlotinib]
Method in brief: (§1)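 Thermal stability values are relative to control samples and come from duplicates. They are expressed as log2 fold changes. For measurement, K562 cells (2×10^6 cells/mL) received 10 μM compound for 30 min, and aliquots were heated for 3 min over 48°C-58°C, pooled, and extracted at 4°C in PBS with 0.5% NP-40. Soluble protein, the supernatant after 21,000xg for 90 min, was quantified by TMTpro 16plex LC-MS/MS with equalised channel sums.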

[1] = compound: C/C(=N\NC(=O)C1=CC(=CC=C1)S(=O)(=O)N2CCOCC2)/C3=C(C=CC(=C3)Cl)O
Method in brief: as §1

[2] = compound: C1=CC(=C(C=C1Cl)C2=NC3=NC=CN=C3C(=N2)NC4=CC=NC=C4)F
Method in brief: as §1

[3] = compound: C1=CC(=CC=C1C2=NC3=C(N2)C=C(C=C3)C(=O)N)OC4=CC=C(C=C4)Cl
Method in brief: as §1

[4] = compound: C1=CC2=C(C=CC(=C2)/C=C\3/C(=O)NC(=NCC4=CC=CS4)S3)N=C1
Method in brief: as §1

[5] = compound: C1=CC2=NC=CN=C2C=C1/C=C/3\C(=O)NC(=O)S3
Method in brief: as §1

[6] = compound: C1=CC=C2C(=C1)C3=NNC4=CC=CC(=C43)C2=O
Method in brief: as §1

[7] = compound: C1CCN(C1)C(=O)NC2=CC=CC(=C2)NC3=NC=C(C(=N3)NCCC4=CN=CN4)Br
Method in brief: as §1

[8] = compound: C1CN(CCC1(CC2=CC=C(C=C2)Cl)N)C3=NC=NC4=C3C=CN4
Method in brief: as §1

IRAK-1-4 Inhibitor I = compound: C1COCCN1CCN2C3=CC=CC=C3N=C2NC(=O)C4=CC(=CC=C4)[N+](=O)[O-] [IRAK-1-4 Inhibitor I]
Method in brief: as §1

ibrutinib = compound: C=CC(=O)N1CCC[C@@H](n2nc(-c3ccc(Oc4ccccc4)cc3)c3c(N)ncnc32)C1 [ibrutinib]
Method in brief: as §1

[9] = compound: CC(=O)c1cnc2ccc(-c3cc(Cl)c(O)c(Cl)c3)nc2c1N[C@H]1CC[C@H](CN(C)C)CC1
Method in brief: as §1

[10] = compound: CC(C)(O)CC(=O)NCCn1ccc2ncnc(Nc3ccc(Oc4cccc(C(F)(F)F)c4)c(Cl)c3)c21
Method in brief: as §1

[11] = compound: CC(C)C1=C2N=C(C=C(N2N=C1)NCC3=CC=CC=C3)NCCCCCCN
Method in brief: as §1

pinometostat = compound: CC(C)N(C[C@H]1O[C@@H](n2cnc3c(N)ncnc32)[C@H](O)[C@@H]1O)[C@H]1C[C@@H](CCc2nc3cc(C(C)(C)C)ccc3[nH]2)C1 [pinometostat]
Method in brief: as §1

[12] = compound: CC1=C(C(CC(=O)N1)C2=CC=C(C=C2)C(F)(F)F)C(=O)NC3=C(C=C4C(=C3)C=NN4)F
Method in brief: as §1

[13] = compound: CC1=C(C2=C(C=C1)C(=O)C3=CC=CC=C3N2CCCN)C
Method in brief: as §1

[14] = compound: C1=CC=C(C=C1)C2=NC(=C(N2)C3=CC=NC=C3)C4=CC(=C(C=C4)Cl)O
Method in brief: as §1

ralimetinib = compound: CC(C)(C)Cn1c(N)nc2ccc(-c3[nH]c(C(C)(C)C)nc3-c3ccc(F)cc3)nc21 [ralimetinib]
Method in brief: as §1

[15] = compound: CC(C)C[C@@H](C=O)NC(=O)[C@H](CC(C)C)NC(=O)[C@H](CC(C)C)NC(=O)OCc1ccccc1
Method in brief: as §1

| Target | log2 fold change (erlotinib) | log2 fold change [1] | log2 fold change [2] | log2 fold change [3] | log2 fold change [4] | log2 fold change [5] | log2 fold change [6] | log2 fold change [7] | log2 fold change [8] | log2 fold change (IRAK-1-4 Inhibitor I) | log2 fold change (ibrutinib) | log2 fold change [9] | log2 fold change [10] | log2 fold change [11] | log2 fold change (pinometostat) | log2 fold change [12] | log2 fold change [13] | log2 fold change [14] | log2 fold change (ralimetinib) | log2 fold change [15] |
| --- | --- | --- | --- | --- | --- | --- | --- | --- | --- | --- | --- | --- | --- | --- | --- | --- | --- | --- | --- | --- |
| VPS37C (UniProt A5D8V6) | inactive: 0.101 | inactive: -0.006 | inactive: 0.091 | inactive: -0.094 | inactive: -0.024 | inactive: 0.081 | inactive: -0.036 | inactive: -0.125 | inactive: 0.045 | inactive: 0.037 | inactive: -0.001 | inactive: -0.026 | inactive: 0.002 | inactive: -0.057 | inactive: -0.007 | inactive: 0.09 | inactive: 0.004 |  |  |  |
| VIPAS39 (UniProt Q9H9C1) | inactive: 0.04 | inactive: 0.256 |  | inactive: -0.062 | inactive: -0.038 | inactive: 0.027 | inactive: 0.098 | inactive: -0.208 | inactive: -0.144 |  | inactive: -0.122 | inactive: 0.032 |  | inactive: -0.262 |  | inactive: 0.006 | inactive: 0.01 |  |  |  |
| WAPL isoform 3 (UniProt Q7Z5K2) | inactive: 0.031 | inactive: 0.017 | inactive: 0.048 | inactive: -0.037 | inactive: 0.057 | inactive: 0.144 | inactive: -0.012 | inactive: -0.217 | inactive: -0.062 | inactive: -0.086 | inactive: -0.002 | inactive: -0.05 | inactive: -0.057 | inactive: -0.339 | inactive: 0.054 |  | inactive: -0.056 | inactive: 0.059 | inactive: -0.072 | inactive: 0.125 |
| VEZF1 (UniProt Q14119) | inactive: -0.147 | inactive: -0.224 | inactive: -0.428 | inactive: 0.028 | inactive: -0.168 | inactive: 0 | inactive: -0.057 |  |  | inactive: -0.24 | inactive: -0.026 | inactive: 0.063 | inactive: 0.122 | inactive: 0.116 | inactive: 0.127 | inactive: 0.004 |  | inactive: -0.15 | inactive: -0.017 | inactive: 0.071 |
| WDR34 (UniProt Q96EX3) | inactive: 0.019 | inactive: 0.004 | inactive: -0.023 | inactive: -0.041 | inactive: 0.062 | inactive: -0.002 | inactive: -0.037 |  |  | inactive: -0.007 | inactive: -0.033 | inactive: 0.021 | inactive: -0.005 | inactive: -0.048 | inactive: 0.025 | inactive: 0.037 |  | inactive: 0.063 | inactive: 0.111 | inactive: -0.074 |
| VDAC3 (UniProt Q9Y277) | inactive: -0.006 | inactive: 0.014 | inactive: 0.043 | inactive: -0.003 | inactive: 0.042 | inactive: 0.033 | inactive: 0.01 | inactive: 0.019 | inactive: 0.062 | inactive: 0.037 |  | inactive: -0.021 | inactive: 0.024 | inactive: 0.024 | inactive: 0 | inactive: 0.031 | inactive: 0.004 | inactive: -0.036 | inactive: -0.029 | inactive: -0.003 |
| VTI1B (UniProt Q9UEU0) | inactive: 0.011 | inactive: -0.008 | inactive: -0.023 | inactive: -0.02 | inactive: 0 | inactive: 0.03 | inactive: -0.036 | inactive: 0.022 | inactive: 0.046 | inactive: -0.074 | inactive: 0.027 | inactive: -0.033 | inactive: 0.08 | active: -0.261 | inactive: -0.057 |  | inactive: 0.012 | inactive: -0.055 | inactive: -0.081 | inactive: 0.002 |
| WARS1 (UniProt G3V277) | inactive: 0.183 | inactive: -0.032 |  | inactive: -0.076 | inactive: 0.25 | inactive: 0.036 | inactive: -0.014 | inactive: 0.141 | inactive: -0.008 | inactive: -0.005 | inactive: -0.064 | inactive: -0.184 |  | inactive: -0.009 | inactive: 0.114 |  | inactive: 0.087 |  |  |  |
| VPS54 (UniProt Q9P1Q0) | inactive: 0.089 | inactive: 0.138 |  | inactive: -0.149 | inactive: -0.132 |  | inactive: 0.026 | inactive: -0.074 | inactive: 0.144 |  |  | inactive: -0.22 |  | inactive: 0.039 |  |  | inactive: 0.113 |  |  |  |
| VDAC1 (UniProt C9JI87) | inactive: 0.277 | inactive: -0.05 | inactive: 0.095 | inactive: -0.01 | inactive: 0.13 | inactive: 0.124 | inactive: -0.04 |  |  |  |  | inactive: -0.091 | inactive: -0.052 | inactive: 0.009 |  |  |  | inactive: 0.091 | inactive: -0.506 | inactive: -0.013 |
| VPS72 isoform 2 (UniProt Q15906) | inactive: -0.017 | inactive: -0.062 | inactive: 0.053 | inactive: -0.108 | inactive: 0.04 | inactive: -0.094 | inactive: -0.134 | inactive: 0.056 | inactive: 0.028 |  | inactive: 0.119 | inactive: 0.033 | inactive: -0.177 | inactive: 0.133 |  |  | active: -0.473 | inactive: -0.054 | inactive: -0.122 | inactive: -0.117 |
| XIAP (UniProt P98170) | inactive: 0.166 | inactive: 0.062 | inactive: 0.1 | inactive: -0.002 | inactive: 0.075 | inactive: -0.018 | inactive: -0.002 | inactive: -0.024 | inactive: 0.065 |  | inactive: -0.076 | inactive: -0.105 | inactive: -0.157 | inactive: -0.05 |  |  | inactive: -0.002 |  |  |  |
| WDR33 (UniProt Q9C0J8) | inactive: 0.047 | inactive: -0.036 | inactive: -0.486 | inactive: -0.075 | inactive: 0.006 | inactive: 0.113 | inactive: -0.065 | inactive: -0.033 | inactive: 0.006 |  | inactive: -0.166 | inactive: -0.15 | inactive: 0 | inactive: 0.015 |  | inactive: 0.029 | inactive: 0.193 | inactive: -0.069 | inactive: -0.058 | inactive: 0.07 |
| WDR24 (UniProt Q96S15) | inactive: 0.003 | inactive: 0.026 | inactive: 0.026 | inactive: -0.08 | inactive: -0.14 |  | inactive: -0.09 | inactive: -0.001 | inactive: -0.268 |  |  | inactive: -0.024 | inactive: 0.177 | inactive: 0.026 |  |  | inactive: 0.196 | inactive: -0.142 | inactive: 0.008 | inactive: -0.059 |
| WSB1 (UniProt Q9Y6I7) |  |  | inactive: 0.067 |  |  |  |  |  |  |  |  |  | inactive: -0.013 |  |  |  |  |  |  |  |
| WARS1 (UniProt G3V3P2) |  |  |  |  |  | inactive: 0.155 |  |  |  |  | inactive: -0.036 |  |  |  |  |  |  |  |  |  |
| WARS1 (UniProt G3V5U1) |  |  | inactive: -0.233 |  |  | inactive: 0.187 |  |  |  | inactive: 0.01 | inactive: -0.158 |  | inactive: 0.156 |  | inactive: 0.031 |  |  |  |  |  |

Looked up one by one from the list above:

| Target | log2 fold change (erlotinib) | log2 fold change [1] | log2 fold change [2] | log2 fold change [3] | log2 fold change [4] | log2 fold change [5] | log2 fold change [6] | log2 fold change [7] | log2 fold change [8] | log2 fold change (IRAK-1-4 Inhibitor I) | log2 fold change (ibrutinib) | log2 fold change [9] | log2 fold change [10] | log2 fold change [11] | log2 fold change (pinometostat) | log2 fold change [12] | log2 fold change [13] | log2 fold change [14] | log2 fold change (ralimetinib) | log2 fold change [15] |
| --- | --- | --- | --- | --- | --- | --- | --- | --- | --- | --- | --- | --- | --- | --- | --- | --- | --- | --- | --- | --- |
| WSB1 (UniProt Q9Y6I7) |  |  | inactive: 0.067 |  |  |  |  |  |  |  |  |  | inactive: -0.013 |  |  |  |  |  |  |  |
| VPS72 isoform 2 (UniProt Q15906) | inactive: -0.017 | inactive: -0.062 | inactive: 0.053 | inactive: -0.108 | inactive: 0.04 | inactive: -0.094 | inactive: -0.134 | inactive: 0.056 | inactive: 0.028 |  | inactive: 0.119 | inactive: 0.033 | inactive: -0.177 | inactive: 0.133 |  |  | active: -0.473 | inactive: -0.054 | inactive: -0.122 | inactive: -0.117 |
